Experimental data published in US11078157B1, “Compound embodiments that release H2S by reaction with a reactive compound and methods of making and using the same” (University of Oregon, priority 2018, dated 2021).

Experiment: Reaction product analysis (preparative isolation and HPLC)
Assay type: physicochemical
Settings: 100 μM donor
Experimental: Compound 604a (0.39 mmol, 1.0 equivalents) was dissolved in 15 mL of 2:1 THF/PBS (10 mM, pH 7.4). L-cysteine methyl ester hydrochloride (1.17 mmol, 3.0 equivalents) was added in a single portion and stirred at room temperature for 2 hours. The reaction mixture was diluted with deionized H2O (˜20 mL) and extracted with CH2Cl2 (3×20 mL). The combined organic extracts were washed with brine and dried over MgSO4. After filtration, the solvent was removed under reduced pressure, and the purified by preparative thin layer chromatography (1:1 CH2Cl2 in hexanes). Compound 604a Rf=0.75 (63.6 mg, 76%) and CysDHT Rf=0.03 (11.0 mg, 13%) were isolated and characterized by ^1H and ^13C{^1H} NMR spectroscopy. The significant recovery of compound 604a is likely due to the lack of buffering capacity in the preparative-scale reaction.
To a 20 mL solution of 10% THF in PBS (10 mM, pH 7.4) containing 2 mM L-cysteine methyl ester (20 equivalents), 20 μL of 100 mM compound 604a in THF was added and stirred at room temperature. After 1 hour, a 1 mL reaction aliquot was analyzed by HPLC. HPLC analysis was performed on an Agilent 1260 HPLC instrument with a Poroshell 120 EC-C18 4.6×100 mm column and monitored at 280 nm. […] The concentration of CysDHT and phenol present at the end of the reaction were determined by measurement against calibration curves for each compound (see FIG. 4). […]

| SMILES | formation of the expected dihydrothiazole, yield by HPLC (L-cysteine methyl ester 2 mM (20 equivalents), aliquot after 1 hour) [%] | concentration of CysDHT after 1 hour (20 equivalents of cysteine, HPLC) [µM] |
| --- | --- | --- |
| S=C(Sc1ccccc1)c1ccccc1 [compound 506a] | ~61 |  |
| S=C(Oc1ccccc1)c1ccccc1 [compound 604a, O-Phenyl benzothioate] |  | ~64 |
